PubChem BioAssay AID1259405 | NCATS | 2018

Purpose: 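Mouse-designed siRNAs used to find CHO productivity engineering targets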 (primary screen)
Cell system: Chinese hamster CHO-K1 ovary cells with stable secreted eGFP expression
Knock-down reagent: single siRNA against mouse genes, 0.8 pmol siRNA per well (2 µl of 400 nM stock)
Time to read-out: 3 days
Measured: 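Per-well intracellular GFP measured by laser scanning cytometry, plus viability from ATP luminescence, each relative to plate median of non-targeting control wells, in %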
Scale: GFP, % of control: higher = more GFP per well, higher productivity; viability (ATP), % of control: higher = more viable cells (more ATP)
Active means: 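a knock-down is called active if GFP reaches 120% or more of non-targeting control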
This is a random part of about 50,000 deposited reagents. In the full data, about 4,000 (8%) were called active. 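Mouse siRNA library applied to hamster cells; one well for each siRNA.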 Entries without a mark were called inactive. Reagents against one gene are numbered here.

For Enpep #1, what was measured?
GFP, % of control: 71.2; viability (ATP), % of control: 64.9

What did the screen give for Enpep #2?
GFP, % of control: 86.4; viability (ATP), % of control: 49.5

Which result is listed for Enpep #3?
GFP, % of control: 54; viability (ATP), % of control: 48.9

How did the screen score Zfp523 #1?
GFP, % of control: 82.5; viability (ATP), % of control: 83.8

With Zfp523 #2, how do the results read?
GFP, % of control: 67.4; viability (ATP), % of control: 53.1

With Or7d9 #1, what was measured?
GFP, % of control: 42; viability (ATP), % of control: 43.1

With Or7d9 #2, how do the results read?
GFP, % of control: 64.2; viability (ATP), % of control: 52.5

With Or7d9 #3, how do the results read?
GFP, % of control: 38.3; viability (ATP), % of control: 91.7

With Vil1 #1, what does the deposit list?
GFP, % of control: 93.8; viability (ATP), % of control: 95.1

How did the screen score Vil1 #2?
GFP, % of control: 99.9; viability (ATP), % of control: 110

With Carhsp1 #1, what was measured?
GFP, % of control: 95.7; viability (ATP), % of control: 91.6

What is on record for Carhsp1 #2?
GFP, % of control: 41.3; viability (ATP), % of control: 74.6

For Carhsp1 #3, what was measured?
GFP, % of control: 38.9; viability (ATP), % of control: 53.6

How did the screen score Lsp1 #1?
GFP, % of control: 81.1; viability (ATP), % of control: 66.2

With Lsp1 #2, what does the deposit list?
GFP, % of control: 47.1; viability (ATP), % of control: 42.7

What did the screen give for Lsp1 #3?
GFP, % of control: 155 (active); viability (ATP), % of control: 68.1

For Prcc #1, how do the results read?
GFP, % of control: 48.4; viability (ATP), % of control: 24

For Prcc #2, how do the results read?
GFP, % of control: 109; viability (ATP), % of control: 55.3

Which result is listed for Prcc #3?
GFP, % of control: 92.2; viability (ATP), % of control: 88.8

What is on record for Cpa3 #1?
GFP, % of control: 101; viability (ATP), % of control: 85.3

How did the screen score Cpa3 #2?
GFP, % of control: 37.4; viability (ATP), % of control: 48.2

For Cpa3 #3, what was measured?
GFP, % of control: 71.5; viability (ATP), % of control: 49.5

Which result is listed for Traf5 #1?
GFP, % of control: 60.3; viability (ATP), % of control: 46.1

Which result is listed for Traf5 #2?
GFP, % of control: 59.9; viability (ATP), % of control: 84.8

What is on record for Traf5 #3?
GFP, % of control: 65.9; viability (ATP), % of control: 68.5

Only “GFP, % of control”, for 5 of the entries above:
Prcc #1	48.4
Prcc #2	109
Prcc #3	92.2
Cpa3 #1	101
Cpa3 #2	37.4

The list goes on:
How did the screen score Enpp6 #1?
GFP, % of control: 72.5; viability (ATP), % of control: 96.1

What is on record for Enpp6 #2?
GFP, % of control: 122 (active); viability (ATP), % of control: 107

Which result is listed for Asb14 #1?
GFP, % of control: 30.3; viability (ATP), % of control: 29.7

What did the screen give for Asb14 #2?
GFP, % of control: 69.1; viability (ATP), % of control: 72.4

With Asb14 #3, what was measured?
GFP, % of control: 69.8; viability (ATP), % of control: 69

How did the screen score Poc1a #1?
GFP, % of control: 45.4; viability (ATP), % of control: 62.7

Which result is listed for Poc1a #2?
GFP, % of control: 133 (active); viability (ATP), % of control: 80.7

With Poc1a #3, what was measured?
GFP, % of control: 61.6; viability (ATP), % of control: 76.9

With Abcb11 #1, how do the results read?
GFP, % of control: 76.8; viability (ATP), % of control: 96.4

With Abcb11 #2, what was measured?
GFP, % of control: 57.9; viability (ATP), % of control: 75.4

With Abcb11 #3, what was measured?
GFP, % of control: 86.9; viability (ATP), % of control: 94.9

With Ankrd7 #1, what was measured?
GFP, % of control: 56.3; viability (ATP), % of control: 96.5

What is on record for Ankrd7 #2?
GFP, % of control: 64.2; viability (ATP), % of control: 76.4

What did the screen give for Ankrd7 #3?
GFP, % of control: 59.6; viability (ATP), % of control: 50

Which result is listed for Aknad1 #1?
GFP, % of control: 87.3; viability (ATP), % of control: 68.1

With Aknad1 #2, what does the deposit list?
GFP, % of control: 30; viability (ATP), % of control: 54.5

Which result is listed for Aknad1 #3?
GFP, % of control: 64.5; viability (ATP), % of control: 59.5
